No constants are given. Whether binding was seen depends on the method and setting. Some entries that bind do so weakly or less than the wild type.
Key:
CD71 단백질(Pro1), 재조합 단백질 [1] = biological target: CD71 단백질(Pro1), 재조합 단백질 (UniProt P02786); experiment: ELISA on coated recombinant protein
CD71 단백질(Pro1), 재조합 단백질 [2] = biological target: CD71 단백질(Pro1), 재조합 단백질 (UniProt P02786); experiment: ELISA, 100 nM coated recombinant protein, antibody 1 μg/mL
[3] = biological target: CD44 (암 줄기세포막 타겟 항원, on cells) (UniProt P16070); experiment: flow cytometry on NCI-87 gastric cancer cells
[4] = biological target: CD44 (암 줄기세포막 타겟 항원, on cells) (UniProt P16070); experiment: flow cytometry on a cancer stem cell line and breast cancer cell lines
[5] = biological target: CD44 (암 줄기세포막 타겟 항원, on cells) (UniProt P16070); experiment: in situ IP with LC-MS/MS; binding to CD44+ cells against CD44 gene knockout cells, compared with a commercial CD44 antibody

By UniProt entry, the sequences of proteins in these tests, tags left out. Residues count along the entry.
UniProt P16070, residues 21-742: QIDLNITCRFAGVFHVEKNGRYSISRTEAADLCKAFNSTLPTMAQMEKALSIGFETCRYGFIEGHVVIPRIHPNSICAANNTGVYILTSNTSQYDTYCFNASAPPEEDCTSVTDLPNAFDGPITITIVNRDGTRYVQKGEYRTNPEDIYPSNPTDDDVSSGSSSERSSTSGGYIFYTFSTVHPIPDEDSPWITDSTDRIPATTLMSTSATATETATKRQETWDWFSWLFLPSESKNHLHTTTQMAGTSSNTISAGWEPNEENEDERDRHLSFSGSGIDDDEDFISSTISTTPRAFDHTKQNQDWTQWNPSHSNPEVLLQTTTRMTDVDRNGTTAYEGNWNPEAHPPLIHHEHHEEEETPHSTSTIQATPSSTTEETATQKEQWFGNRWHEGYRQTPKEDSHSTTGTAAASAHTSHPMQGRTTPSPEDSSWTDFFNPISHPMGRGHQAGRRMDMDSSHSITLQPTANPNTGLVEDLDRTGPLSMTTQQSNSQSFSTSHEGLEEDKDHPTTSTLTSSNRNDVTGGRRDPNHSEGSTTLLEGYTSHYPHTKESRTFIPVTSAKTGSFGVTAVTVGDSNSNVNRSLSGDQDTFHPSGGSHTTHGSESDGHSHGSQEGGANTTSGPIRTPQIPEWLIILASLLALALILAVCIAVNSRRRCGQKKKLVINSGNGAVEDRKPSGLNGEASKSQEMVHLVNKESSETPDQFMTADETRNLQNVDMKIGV

binding (CD71 단백질(Pro1), 재조합 단백질 [1]) | binding (CD71 단백질(Pro1), 재조합 단백질 [2]) | binding [3] | binding [4] | binding [5] | Binder
binds | binds |  |  |  | 1E12 항체 (antibody, V domains shown) VH: QMQLVQSGAEVKKPGASVKVSCKASGYIFTDYYMHWVRQAPGQGLEWMGGISPIFGTANYAQNFQGRVTITADESTTTAYMELSNLRSEDTAVYYCAKDGAGPEYYYYGLDVWGQGTSVTVSS VL: QSALTQPPSVSGSPGQSVTISCTGTSSDIGGYNYVSWYQHHPGKAPKLVISEVTKRPSGVPGRFSGSKSGNTASLTVSGLQAEDEADYYCSSYSDSDNLLFGGGTKLTVLG
 |  | binds | binds | binds | 3C7 항체 (antibody, V domains shown) VH: QVQLVQSGGGLVQPGRSLRLSCAASGFTFGDYGMHWVRQAPGRGLEWVSGISWNSDTIGLADSVKGRFTVSRDNAKNSLYLQMNSLRAEDTAVYYCARPAFISGWYPGFFDIWGQGTMVTVSS VL: QSALTQPASVSGSPGQSITISCSGTTRDVGRYDYVSWYRQYPGEAPQLLIYDVSKRPSGVSNRFFDSKSGNTASLTISGLQADDEADYYCCSYAGNSTYVFGTGTKVTVLG
